Measurements reported in the supplement of paper PMC8728848.
This is one part of the list.

Assays:
Assay in all cases: glycan array binding signal (z-score within array); higher = stronger binding
Details in all cases: glycan notation: IUPAC condensed, linker removed
Neu5Ac(a2-6)GalNAc = target: Neu5Ac(a2-6)GalNAc
Method in brief: (§1)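 From the Consortium for Functional Glycomics database, 3228 arrays were curated, keeping only those whose protein sequence was available. Binding is given as a within-array Z-score averaged across arrays sharing a protein sequence and across linkers. Negative Z-scores can be read as non-binding.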

[1] = target: Neu5Ac(a2-6)GalNAc(b1-4)GlcNAc
Method in brief: as §1

[2] = target: Neu5Ac(a2-6)GalNAc(b1-4)GlcNAc6S
Method in brief: as §1

[3] = target: Neu5Ac(a2-6)GlcNAc(b1-4)GlcNAc
Method in brief: as §1

[4] = target: Neu5Ac(a2-6)GlcNAc(b1-4)GlcNAc(b1-4)GlcNAc
Method in brief: as §1

Neu5Ac(a2-8)Neu5Ac = target: Neu5Ac(a2-8)Neu5Ac
Method in brief: as §1

[5] = target: Neu5Ac(a2-8)Neu5Ac(a2-3)Gal(b1-3)GalNAc(b1-4)[Neu5Ac(a2-3)]Gal(b1-4)Glc
Method in brief: as §1

[6] = target: Neu5Ac(a2-8)Neu5Ac(a2-3)Gal(b1-3)GalNAc(b1-4)[Neu5Ac(a2-8)Neu5Ac(a2-3)]Gal(b1-4)Glc
Method in brief: as §1

[7] = target: Neu5Ac(a2-8)Neu5Ac(a2-3)Gal(b1-4)Glc
Method in brief: as §1

[8] = target: Neu5Ac(a2-8)Neu5Ac(a2-3)Gal(b1-4)GlcNAc
Method in brief: as §1

[9] = target: Neu5Ac(a2-8)Neu5Ac(a2-3)[Gal(b1-3)GalNAc(b1-4)]Gal(b1-4)Glc
Method in brief: as §1

[10] = target: Neu5Ac(a2-8)Neu5Ac(a2-3)[GalNAc(b1-4)]Gal(b1-4)Glc
Method in brief: as §1

[11] = target: Neu5Ac(a2-8)Neu5Ac(a2-8)Neu5Ac
Method in brief: as §1

[12] = target: Neu5Ac(a2-8)Neu5Ac(a2-8)Neu5Ac(a2-3)Gal(b1-4)Glc
Method in brief: as §1

[13] = target: Neu5Ac(a2-8)Neu5Ac(a2-8)Neu5Ac(a2-3)[Gal(b1-3)GalNAc(b1-4)]Gal(b1-4)Glc
Method in brief: as §1

[14] = target: Neu5Ac(a2-8)Neu5Ac(a2-8)Neu5Ac(a2-3)[GalNAc(b1-4)]Gal(b1-4)Glc
Method in brief: as §1

[15] = target: Neu5Ac(a2-8)Neu5Ac(a2-8)Neu5Ac(a2-8)Neu5Ac(a2-3)[GalNAc(b1-4)]Gal(b1-4)Glc
Method in brief: as §1

[16] = target: Neu5Ac(a2-8)Neu5Gc(a2-3)Gal(b1-4)GlcNAc
Method in brief: as §1

[17] = target: Neu5Ac(b2-6)Gal(b1-4)GlcNAc
Method in brief: as §1

Neu5Ac(b2-6)GalNAc = target: Neu5Ac(b2-6)GalNAc
Method in brief: as §1

[18] = target: Neu5Ac9Ac(a2-3)Gal(b1-3)GlcNAc
Method in brief: as §1

[19] = target: Neu5Ac9Ac(a2-3)Gal(b1-4)GlcNAc
Method in brief: as §1

[20] = target: Neu5Ac9Ac(a2-6)Gal(b1-4)GlcNAc
Method in brief: as §1

[21] = target: Neu5Gc(a2-3)Gal(b1-3)GlcNAc
Method in brief: as §1

[22] = target: Neu5Gc(a2-3)Gal(b1-3)[Fuc(a1-4)]GlcNAc
Method in brief: as §1

Neu5Gc(a2-3)Gal(b1-4)Glc = target: Neu5Gc(a2-3)Gal(b1-4)Glc
Method in brief: as §1

[23] = target: Neu5Gc(a2-3)Gal(b1-4)GlcNAc
Method in brief: as §1

[24] = target: Neu5Gc(a2-3)Gal(b1-4)GlcNAc(b1-3)Gal(b1-4)GlcNAc(b1-2)Man(a1-3)[Neu5Gc(a2-3)Gal(b1-4)GlcNAc(b1-3)Gal(b1-4)GlcNAc(b1-2)Man(a1-6)]Man(b1-4)GlcNAc(b1-4)GlcNAc
Method in brief: as §1

[25] = target: Neu5Gc(a2-3)Gal(b1-4)[Fuc(a1-3)]GlcNAc
Method in brief: as §1

[26] = target: Neu5Gc(a2-6)Gal(b1-4)GlcNAc
Method in brief: as §1

Neu5Gc(a2-6)GalNAc = target: Neu5Gc(a2-6)GalNAc
Method in brief: as §1

[27] = target: Neu5Gc(a2-8)Neu5Ac(a2-3)Gal(b1-4)GlcNAc
Method in brief: as §1

[28] = target: Neu5Gc(a2-8)Neu5Gc(a2-3)Gal(b1-4)GlcNAc
Method in brief: as §1

[29] = target: Neu5Gc(a2-8)Neu5Gc(a2-3)Gal(b1-4)GlcNAc(b1-3)Gal(b1-4)GlcNAc
Method in brief: as §1

[30] = target: Neu5Gc(a2-8)Neu5Gc(a2-6)Gal(b1-4)GlcNAc
Method in brief: as §1

[31] = target: Neu5Gc(b2-6)Gal(b1-4)GlcNAc
Method in brief: as §1

KISKRILTGKK [NK11 (Sus scrofa)]
glycan array binding signal (z-score) (Neu5Ac(a2-6)GalNAc): 0.142
glycan array binding signal (z-score) [1]: -0.765
glycan array binding signal (z-score) [2]: -0.697
glycan array binding signal (z-score) [3]: 0.751
glycan array binding signal (z-score) [4]: -0.7
glycan array binding signal (z-score) (Neu5Ac(a2-8)Neu5Ac): -0.559
glycan array binding signal (z-score) [5]: 0.326
glycan array binding signal (z-score) [6]: -0.754
glycan array binding signal (z-score) [7]: -0.177
glycan array binding signal (z-score) [8]: -1.78
glycan array binding signal (z-score) [9]: -0.681
glycan array binding signal (z-score) [10]: -0.123
glycan array binding signal (z-score) [11]: 0.225
glycan array binding signal (z-score) [12]: -0.187
glycan array binding signal (z-score) [13]: -0.428
glycan array binding signal (z-score) [14]: 1.29
glycan array binding signal (z-score) [15]: 0.225
glycan array binding signal (z-score) [16]: -2.12
glycan array binding signal (z-score) [17]: 0.339
glycan array binding signal (z-score) (Neu5Ac(b2-6)GalNAc): 1.04
glycan array binding signal (z-score) [18]: -0.131
glycan array binding signal (z-score) [19]: 0.556
glycan array binding signal (z-score) [20]: 0.883
glycan array binding signal (z-score) [21]: 0.339
glycan array binding signal (z-score) [22]: 0.405
glycan array binding signal (z-score) (Neu5Gc(a2-3)Gal(b1-4)Glc): 0.165
glycan array binding signal (z-score) [23]: 0.063
glycan array binding signal (z-score) [24]: 1.22
glycan array binding signal (z-score) [25]: 0.298
glycan array binding signal (z-score) [26]: -0.07
glycan array binding signal (z-score) (Neu5Gc(a2-6)GalNAc): 0.082
glycan array binding signal (z-score) [27]: -0.047
glycan array binding signal (z-score) [28]: -0.325
glycan array binding signal (z-score) [29]: -1.28
glycan array binding signal (z-score) [30]: -1.42
glycan array binding signal (z-score) [31]: -0.146
